Assay results reported in the supplement of paper PMC6411743.
± gives the standard deviation of the averaged measurements. This is a selection; strong and weak results do not stand in their true shares.

Tests used:
Experiment in all cases: NP40-soluble protein abundance relative to vehicle (solubility fold change) (ratio); higher = more soluble protein in presence of ATP
C2orf69 = biological target: T1, C2orf69 (UniProt Q8N8R5)
T1 sequence (whole entry): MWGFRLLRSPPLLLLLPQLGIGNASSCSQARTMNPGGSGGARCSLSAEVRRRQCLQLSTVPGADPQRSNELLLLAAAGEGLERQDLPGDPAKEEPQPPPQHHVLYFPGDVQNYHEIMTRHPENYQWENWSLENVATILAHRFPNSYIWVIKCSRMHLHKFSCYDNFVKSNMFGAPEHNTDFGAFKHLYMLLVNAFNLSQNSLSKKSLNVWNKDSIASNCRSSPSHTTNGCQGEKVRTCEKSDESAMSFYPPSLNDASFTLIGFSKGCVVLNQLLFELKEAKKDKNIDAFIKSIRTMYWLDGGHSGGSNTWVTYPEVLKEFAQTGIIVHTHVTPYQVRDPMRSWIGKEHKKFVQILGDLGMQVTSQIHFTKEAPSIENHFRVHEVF
How it was run: (§1)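 Across three independent experiments, values are fold changes against the detergent-processed vehicle for each replicate, based on vsn-normalised intensities. The samples were Jurkat crude lysate treated with eight concentrations (0.1 to 10 mM) for 10 min at room temperature and then 3 min at 37 °C. Lysate was solubilised with 0.8% NP40 and benzonase, ultracentrifuged, and the supernatant analysed by TMT-labelled LC-MS/MS.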

CBR4 = biological target: T2, CBR4 (UniProt Q8N4T8)
T2 sequence (whole entry): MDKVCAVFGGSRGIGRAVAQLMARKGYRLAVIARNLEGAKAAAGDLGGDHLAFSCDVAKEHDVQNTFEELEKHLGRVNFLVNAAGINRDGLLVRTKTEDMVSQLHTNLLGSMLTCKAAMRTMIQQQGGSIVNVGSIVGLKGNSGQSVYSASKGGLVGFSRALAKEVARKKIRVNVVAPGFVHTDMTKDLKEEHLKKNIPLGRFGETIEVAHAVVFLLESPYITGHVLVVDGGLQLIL
How it was run: as §1

KIAA0319L = biological target: T3, KIAA0319L (UniProt Q8IZA0)
T3 sequence (whole entry): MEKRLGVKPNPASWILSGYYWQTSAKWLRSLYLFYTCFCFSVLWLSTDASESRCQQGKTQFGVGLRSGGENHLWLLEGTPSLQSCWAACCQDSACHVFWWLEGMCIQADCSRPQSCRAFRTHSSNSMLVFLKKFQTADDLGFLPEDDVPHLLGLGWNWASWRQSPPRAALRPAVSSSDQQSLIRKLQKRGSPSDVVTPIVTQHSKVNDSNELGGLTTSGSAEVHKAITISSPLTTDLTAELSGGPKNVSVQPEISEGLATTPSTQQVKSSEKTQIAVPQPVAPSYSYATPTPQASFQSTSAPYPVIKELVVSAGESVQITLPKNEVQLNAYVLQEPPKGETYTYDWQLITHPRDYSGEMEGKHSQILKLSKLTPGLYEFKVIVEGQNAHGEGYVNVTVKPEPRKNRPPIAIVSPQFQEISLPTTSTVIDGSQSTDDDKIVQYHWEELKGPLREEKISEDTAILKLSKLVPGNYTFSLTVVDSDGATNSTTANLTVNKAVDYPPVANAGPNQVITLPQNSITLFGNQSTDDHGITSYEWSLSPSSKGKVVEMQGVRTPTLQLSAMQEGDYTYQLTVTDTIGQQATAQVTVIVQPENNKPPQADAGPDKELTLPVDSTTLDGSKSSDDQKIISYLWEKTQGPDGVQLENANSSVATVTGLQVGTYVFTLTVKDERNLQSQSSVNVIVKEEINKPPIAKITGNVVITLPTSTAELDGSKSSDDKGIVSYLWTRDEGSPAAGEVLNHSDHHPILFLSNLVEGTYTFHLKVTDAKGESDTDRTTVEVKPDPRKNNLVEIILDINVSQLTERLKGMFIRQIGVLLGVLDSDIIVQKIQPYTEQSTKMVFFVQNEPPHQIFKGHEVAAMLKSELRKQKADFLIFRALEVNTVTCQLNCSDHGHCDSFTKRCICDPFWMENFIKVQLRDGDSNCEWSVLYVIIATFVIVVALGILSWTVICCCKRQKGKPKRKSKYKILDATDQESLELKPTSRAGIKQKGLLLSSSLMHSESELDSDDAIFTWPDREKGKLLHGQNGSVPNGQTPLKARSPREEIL
How it was run: as §1

LNX2 = biological target: T4, LNX2 (UniProt Q8N448)
T4 sequence (whole entry): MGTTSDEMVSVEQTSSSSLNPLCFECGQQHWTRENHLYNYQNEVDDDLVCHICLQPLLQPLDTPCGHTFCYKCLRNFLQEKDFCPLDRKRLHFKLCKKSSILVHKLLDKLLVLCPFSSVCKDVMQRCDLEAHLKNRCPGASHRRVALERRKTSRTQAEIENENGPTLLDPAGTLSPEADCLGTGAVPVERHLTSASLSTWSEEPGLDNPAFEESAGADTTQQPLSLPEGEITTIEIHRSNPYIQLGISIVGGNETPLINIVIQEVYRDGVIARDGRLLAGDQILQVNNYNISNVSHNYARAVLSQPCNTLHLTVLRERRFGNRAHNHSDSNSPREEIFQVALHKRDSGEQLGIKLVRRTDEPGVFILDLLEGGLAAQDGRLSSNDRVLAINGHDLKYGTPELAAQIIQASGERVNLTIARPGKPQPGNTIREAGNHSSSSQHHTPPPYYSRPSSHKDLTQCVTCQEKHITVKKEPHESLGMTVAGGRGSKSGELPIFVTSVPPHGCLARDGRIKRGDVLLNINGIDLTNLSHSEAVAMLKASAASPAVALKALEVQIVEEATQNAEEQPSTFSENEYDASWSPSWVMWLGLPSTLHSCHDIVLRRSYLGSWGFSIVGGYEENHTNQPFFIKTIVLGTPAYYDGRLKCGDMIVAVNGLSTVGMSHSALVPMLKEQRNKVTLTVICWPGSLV
How it was run: as §1

RBM15B = biological target: T5, RBM15B (UniProt Q8NDT2)
T5 sequence (whole entry): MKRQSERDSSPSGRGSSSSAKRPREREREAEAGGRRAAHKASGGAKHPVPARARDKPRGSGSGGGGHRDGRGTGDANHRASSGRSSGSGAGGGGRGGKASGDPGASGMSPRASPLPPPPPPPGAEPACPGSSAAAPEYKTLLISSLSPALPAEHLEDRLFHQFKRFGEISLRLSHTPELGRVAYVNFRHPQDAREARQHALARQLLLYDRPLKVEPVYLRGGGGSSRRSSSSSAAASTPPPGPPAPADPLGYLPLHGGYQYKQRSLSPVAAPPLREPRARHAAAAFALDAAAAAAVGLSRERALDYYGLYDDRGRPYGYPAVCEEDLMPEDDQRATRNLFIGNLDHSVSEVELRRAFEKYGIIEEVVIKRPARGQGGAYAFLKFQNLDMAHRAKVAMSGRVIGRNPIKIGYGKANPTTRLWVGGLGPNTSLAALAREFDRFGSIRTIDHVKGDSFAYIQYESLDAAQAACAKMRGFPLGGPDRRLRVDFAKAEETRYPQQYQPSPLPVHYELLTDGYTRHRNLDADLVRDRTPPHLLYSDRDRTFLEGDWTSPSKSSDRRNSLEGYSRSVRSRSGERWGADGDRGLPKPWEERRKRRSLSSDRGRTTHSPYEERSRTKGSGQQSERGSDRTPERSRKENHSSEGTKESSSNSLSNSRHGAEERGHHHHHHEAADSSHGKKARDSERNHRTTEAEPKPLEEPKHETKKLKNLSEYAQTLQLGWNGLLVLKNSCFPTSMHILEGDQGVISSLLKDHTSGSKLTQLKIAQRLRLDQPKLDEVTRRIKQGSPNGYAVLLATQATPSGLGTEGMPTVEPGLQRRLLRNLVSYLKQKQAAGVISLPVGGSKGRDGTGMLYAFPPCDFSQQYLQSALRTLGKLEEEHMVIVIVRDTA
How it was run: as §1

RP9 = biological target: T6, RP9 (UniProt Q8TA86); conditions: concentration: 1mM
T6 sequence (whole entry): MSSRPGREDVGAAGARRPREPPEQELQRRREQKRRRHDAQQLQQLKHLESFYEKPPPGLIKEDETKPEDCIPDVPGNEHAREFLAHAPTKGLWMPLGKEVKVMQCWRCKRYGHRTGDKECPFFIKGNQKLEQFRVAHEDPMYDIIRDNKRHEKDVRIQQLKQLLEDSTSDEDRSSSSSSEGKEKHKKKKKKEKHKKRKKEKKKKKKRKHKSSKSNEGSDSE
How it was run: as §1

Nc1ncnc2c1ncn2[C@@H]1O[C@H](COP(=O)(O)OP(=O)(O)OP(=O)(O)O)[C@@H](O)[C@H]1O [adenosine triphosphate]
NP40-soluble protein abundance (C2orf69; concentration: 1mM): 1.04 ± 0.083
NP40-soluble protein abundance (C2orf69; concentration: 2mM): 1 ± 0.064
NP40-soluble protein abundance (C2orf69; concentration: 4mM): 1 ± 0.064
NP40-soluble protein abundance (C2orf69; concentration: 6mM): 0.951 ± 0.033
NP40-soluble protein abundance (C2orf69; concentration: 8mM): 0.973 ± 0.016
NP40-soluble protein abundance (C2orf69; concentration: 10mM): 0.949 ± 0.06
NP40-soluble protein abundance (CBR4; concentration: 1mM): 0.949 ± 0.038
NP40-soluble protein abundance (CBR4; concentration: 2mM): 0.975 ± 0.039
NP40-soluble protein abundance (CBR4; concentration: 4mM): 0.974 ± 0.054
NP40-soluble protein abundance (CBR4; concentration: 6mM): 0.907 ± 0.017
NP40-soluble protein abundance (CBR4; concentration: 8mM): 0.945 ± 0.028
NP40-soluble protein abundance (CBR4; concentration: 10mM): 0.984 ± 0.027
NP40-soluble protein abundance (KIAA0319L; concentration: 1mM): 0.977 ± 0.041
NP40-soluble protein abundance (KIAA0319L; concentration: 2mM): 0.965 ± 0.038
NP40-soluble protein abundance (KIAA0319L; concentration: 4mM): 0.987 ± 0.018
NP40-soluble protein abundance (KIAA0319L; concentration: 6mM): 1.01 ± 0.012
NP40-soluble protein abundance (KIAA0319L; concentration: 8mM): 0.944 ± 0.038
NP40-soluble protein abundance (KIAA0319L; concentration: 10mM): 0.958 ± 0.018
NP40-soluble protein abundance (LNX2; concentration: 1mM): 1 ± 0.05
NP40-soluble protein abundance (LNX2; concentration: 2mM): 0.936 ± 0.012
NP40-soluble protein abundance (LNX2; concentration: 4mM): 1.01 ± 0.078
NP40-soluble protein abundance (LNX2; concentration: 6mM): 0.942 ± 0.028
NP40-soluble protein abundance (LNX2; concentration: 8mM): 0.931 ± 0.12
NP40-soluble protein abundance (LNX2; concentration: 10mM): 0.968 ± 0.1
NP40-soluble protein abundance (RBM15B; concentration: 1mM): 1.18 ± 0.062
NP40-soluble protein abundance (RBM15B; concentration: 2mM): 1.2 ± 0.046
NP40-soluble protein abundance (RBM15B; concentration: 4mM): 1.26 ± 0.064
NP40-soluble protein abundance (RBM15B; concentration: 6mM): 1.32 ± 0.095
NP40-soluble protein abundance (RBM15B; concentration: 8mM): 1.34 ± 0.065
NP40-soluble protein abundance (RBM15B; concentration: 10mM): 1.37 ± 0.035
NP40-soluble protein abundance (RP9): 0.978 ± 0.16
